The text below walks through data of PMC8980529.

Chains of the proteins cited; added tags and fusions are not shown. Lines headed by an entry give the natural chain unless they say otherwise; changes in a name come on top. Residues count along the entry.
UniProt Q03591, residues 19-330: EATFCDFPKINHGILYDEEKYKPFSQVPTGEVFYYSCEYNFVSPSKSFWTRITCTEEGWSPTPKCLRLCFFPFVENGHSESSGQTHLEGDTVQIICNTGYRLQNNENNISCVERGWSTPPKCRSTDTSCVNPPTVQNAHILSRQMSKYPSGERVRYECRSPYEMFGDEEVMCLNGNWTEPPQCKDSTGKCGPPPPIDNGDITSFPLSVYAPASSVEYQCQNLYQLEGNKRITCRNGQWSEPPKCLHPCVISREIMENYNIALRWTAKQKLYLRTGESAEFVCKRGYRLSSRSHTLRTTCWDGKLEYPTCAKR
UniProt P36980, residues 19-270: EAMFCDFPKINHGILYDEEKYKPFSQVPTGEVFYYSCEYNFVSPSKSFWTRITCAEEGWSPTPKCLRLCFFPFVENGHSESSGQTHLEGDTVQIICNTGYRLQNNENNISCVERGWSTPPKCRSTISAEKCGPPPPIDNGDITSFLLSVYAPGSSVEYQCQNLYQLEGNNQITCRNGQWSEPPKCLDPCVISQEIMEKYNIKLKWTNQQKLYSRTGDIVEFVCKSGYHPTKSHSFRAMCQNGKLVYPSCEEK
UniProt Q02985, residues 19-330: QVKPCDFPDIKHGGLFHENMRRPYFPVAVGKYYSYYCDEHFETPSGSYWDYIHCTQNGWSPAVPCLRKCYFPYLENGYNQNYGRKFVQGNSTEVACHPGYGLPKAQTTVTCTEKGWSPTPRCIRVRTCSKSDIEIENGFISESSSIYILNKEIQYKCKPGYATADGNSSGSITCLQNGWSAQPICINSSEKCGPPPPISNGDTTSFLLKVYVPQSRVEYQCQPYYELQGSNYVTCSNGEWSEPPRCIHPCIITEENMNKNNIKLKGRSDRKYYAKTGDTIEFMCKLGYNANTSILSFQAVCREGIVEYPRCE
UniProt P08603, residues 19-1231: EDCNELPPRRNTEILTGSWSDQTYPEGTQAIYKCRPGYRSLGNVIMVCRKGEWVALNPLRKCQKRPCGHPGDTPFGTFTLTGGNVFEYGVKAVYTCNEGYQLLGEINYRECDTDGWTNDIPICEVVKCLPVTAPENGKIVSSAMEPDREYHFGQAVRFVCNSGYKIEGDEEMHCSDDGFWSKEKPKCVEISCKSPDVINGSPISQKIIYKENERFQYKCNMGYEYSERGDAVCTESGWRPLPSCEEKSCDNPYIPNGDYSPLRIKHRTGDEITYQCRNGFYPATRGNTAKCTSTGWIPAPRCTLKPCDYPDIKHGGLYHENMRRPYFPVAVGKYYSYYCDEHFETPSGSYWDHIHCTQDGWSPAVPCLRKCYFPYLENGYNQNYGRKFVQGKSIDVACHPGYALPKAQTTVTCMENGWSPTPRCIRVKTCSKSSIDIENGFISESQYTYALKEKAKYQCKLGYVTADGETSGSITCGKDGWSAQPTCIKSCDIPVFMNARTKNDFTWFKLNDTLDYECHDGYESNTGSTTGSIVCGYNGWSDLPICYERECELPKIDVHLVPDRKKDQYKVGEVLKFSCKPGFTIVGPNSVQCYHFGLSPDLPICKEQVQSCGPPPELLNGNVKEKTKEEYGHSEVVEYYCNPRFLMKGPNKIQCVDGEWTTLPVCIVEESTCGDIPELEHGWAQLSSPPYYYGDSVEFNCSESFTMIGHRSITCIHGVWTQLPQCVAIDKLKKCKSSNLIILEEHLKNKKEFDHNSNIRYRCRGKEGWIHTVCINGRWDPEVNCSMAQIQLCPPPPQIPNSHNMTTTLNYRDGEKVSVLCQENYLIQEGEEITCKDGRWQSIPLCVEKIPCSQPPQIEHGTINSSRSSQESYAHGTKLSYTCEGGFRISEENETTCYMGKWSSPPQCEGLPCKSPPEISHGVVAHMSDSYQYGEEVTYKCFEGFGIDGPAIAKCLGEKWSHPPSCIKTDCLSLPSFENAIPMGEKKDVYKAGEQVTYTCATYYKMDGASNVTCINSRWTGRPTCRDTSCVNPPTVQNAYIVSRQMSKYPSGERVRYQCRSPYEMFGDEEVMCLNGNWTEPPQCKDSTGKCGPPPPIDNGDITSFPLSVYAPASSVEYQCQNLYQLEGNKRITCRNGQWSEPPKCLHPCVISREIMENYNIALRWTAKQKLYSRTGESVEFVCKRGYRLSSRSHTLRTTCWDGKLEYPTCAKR
UniProt P27918, residues 28-469: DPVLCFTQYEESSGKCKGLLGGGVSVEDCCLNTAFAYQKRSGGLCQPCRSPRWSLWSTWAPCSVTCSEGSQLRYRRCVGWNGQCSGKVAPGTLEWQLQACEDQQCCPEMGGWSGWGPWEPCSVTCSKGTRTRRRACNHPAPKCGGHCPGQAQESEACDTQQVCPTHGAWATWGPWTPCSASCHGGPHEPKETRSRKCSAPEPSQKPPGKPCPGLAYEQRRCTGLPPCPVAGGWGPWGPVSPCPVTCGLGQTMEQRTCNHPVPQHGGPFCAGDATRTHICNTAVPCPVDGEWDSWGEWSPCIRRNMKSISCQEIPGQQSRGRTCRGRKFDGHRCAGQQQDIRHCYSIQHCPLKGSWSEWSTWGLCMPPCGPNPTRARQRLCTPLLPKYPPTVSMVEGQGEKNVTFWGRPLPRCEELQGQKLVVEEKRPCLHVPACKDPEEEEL
UniProt P01024: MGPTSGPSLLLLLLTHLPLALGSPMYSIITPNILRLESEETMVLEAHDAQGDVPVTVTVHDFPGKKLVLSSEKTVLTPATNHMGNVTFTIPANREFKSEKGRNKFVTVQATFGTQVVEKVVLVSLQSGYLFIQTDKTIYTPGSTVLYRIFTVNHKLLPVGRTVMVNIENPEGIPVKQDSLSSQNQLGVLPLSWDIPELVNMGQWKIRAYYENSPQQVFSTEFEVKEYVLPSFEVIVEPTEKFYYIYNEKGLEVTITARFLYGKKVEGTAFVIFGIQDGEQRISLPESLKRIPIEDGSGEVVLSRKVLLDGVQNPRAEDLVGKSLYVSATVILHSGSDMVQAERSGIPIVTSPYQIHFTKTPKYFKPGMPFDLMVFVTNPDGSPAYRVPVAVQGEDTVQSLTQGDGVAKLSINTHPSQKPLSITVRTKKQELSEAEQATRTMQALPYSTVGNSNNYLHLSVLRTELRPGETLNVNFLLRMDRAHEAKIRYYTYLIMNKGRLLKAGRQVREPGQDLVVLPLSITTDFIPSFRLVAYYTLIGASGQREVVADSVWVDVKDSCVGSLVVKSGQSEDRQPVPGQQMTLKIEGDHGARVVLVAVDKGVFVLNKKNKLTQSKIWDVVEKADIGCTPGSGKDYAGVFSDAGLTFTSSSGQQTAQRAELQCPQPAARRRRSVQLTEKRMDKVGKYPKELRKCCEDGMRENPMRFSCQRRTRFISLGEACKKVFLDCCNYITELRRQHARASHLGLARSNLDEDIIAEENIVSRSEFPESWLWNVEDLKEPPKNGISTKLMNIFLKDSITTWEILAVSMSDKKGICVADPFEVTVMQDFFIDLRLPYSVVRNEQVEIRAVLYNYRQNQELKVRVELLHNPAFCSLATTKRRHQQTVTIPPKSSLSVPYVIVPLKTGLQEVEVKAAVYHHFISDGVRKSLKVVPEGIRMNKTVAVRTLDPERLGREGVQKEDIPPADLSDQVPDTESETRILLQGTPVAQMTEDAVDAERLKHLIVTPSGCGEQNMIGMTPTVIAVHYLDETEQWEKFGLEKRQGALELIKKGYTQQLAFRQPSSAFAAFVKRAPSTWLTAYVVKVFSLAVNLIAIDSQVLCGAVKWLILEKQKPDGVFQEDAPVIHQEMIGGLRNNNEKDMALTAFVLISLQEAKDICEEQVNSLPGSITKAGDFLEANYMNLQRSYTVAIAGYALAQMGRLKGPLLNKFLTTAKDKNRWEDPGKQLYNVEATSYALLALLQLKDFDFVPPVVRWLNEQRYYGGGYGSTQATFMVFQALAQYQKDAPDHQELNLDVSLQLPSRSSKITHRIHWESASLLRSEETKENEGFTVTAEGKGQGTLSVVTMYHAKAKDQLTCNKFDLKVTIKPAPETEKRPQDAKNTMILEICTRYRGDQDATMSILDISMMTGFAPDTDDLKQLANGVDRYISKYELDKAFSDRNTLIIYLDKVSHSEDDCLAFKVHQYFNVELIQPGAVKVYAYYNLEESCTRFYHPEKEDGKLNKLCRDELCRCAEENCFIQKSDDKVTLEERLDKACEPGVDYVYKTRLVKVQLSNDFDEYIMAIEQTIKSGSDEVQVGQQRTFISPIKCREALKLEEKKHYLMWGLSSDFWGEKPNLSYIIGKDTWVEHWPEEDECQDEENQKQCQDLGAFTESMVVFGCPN

For experiment [1], the target named is T1, Proline/arginine-rich end leucine-rich repeat protein (UniProt P51888).
T1 sequence: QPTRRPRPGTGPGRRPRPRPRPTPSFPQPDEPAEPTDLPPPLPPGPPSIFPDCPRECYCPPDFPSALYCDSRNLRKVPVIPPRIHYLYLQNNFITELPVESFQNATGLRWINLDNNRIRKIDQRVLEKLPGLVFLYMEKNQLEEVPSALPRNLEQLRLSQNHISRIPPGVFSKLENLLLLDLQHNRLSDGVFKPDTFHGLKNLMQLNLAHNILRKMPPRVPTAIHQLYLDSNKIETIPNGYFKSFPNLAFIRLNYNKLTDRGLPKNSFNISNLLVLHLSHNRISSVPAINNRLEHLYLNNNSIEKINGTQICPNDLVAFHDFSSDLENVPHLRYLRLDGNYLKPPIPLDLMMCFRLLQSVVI
The experiment can be described thus: peptide or protein array; competition: printed ECM proteins incubated with 25 µg/ml FH with or without FHR1 (5, 25, 50 µg/ml) or FHR5 (0.5, 5, 20 µg/ml); bound FH detected with mAb A254 that does not cross-react with FHR1 and FHR5; both purified.

Experiment [2] has as its target T2, Fibromodulin (UniProt Q06828).
T2 sequence: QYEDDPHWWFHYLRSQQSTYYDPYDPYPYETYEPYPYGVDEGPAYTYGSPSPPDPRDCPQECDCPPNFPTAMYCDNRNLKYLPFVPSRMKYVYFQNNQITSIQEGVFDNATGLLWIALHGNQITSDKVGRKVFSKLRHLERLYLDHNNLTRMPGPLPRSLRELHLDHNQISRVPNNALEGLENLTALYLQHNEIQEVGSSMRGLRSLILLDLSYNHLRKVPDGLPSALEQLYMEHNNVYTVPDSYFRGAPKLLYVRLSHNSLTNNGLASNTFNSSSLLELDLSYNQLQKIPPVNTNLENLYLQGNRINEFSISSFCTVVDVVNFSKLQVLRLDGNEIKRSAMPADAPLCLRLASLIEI
The experiment is described as above.

Experiment [3] addresses T3, Osteoadherin (UniProt Q99983).
T3 sequence: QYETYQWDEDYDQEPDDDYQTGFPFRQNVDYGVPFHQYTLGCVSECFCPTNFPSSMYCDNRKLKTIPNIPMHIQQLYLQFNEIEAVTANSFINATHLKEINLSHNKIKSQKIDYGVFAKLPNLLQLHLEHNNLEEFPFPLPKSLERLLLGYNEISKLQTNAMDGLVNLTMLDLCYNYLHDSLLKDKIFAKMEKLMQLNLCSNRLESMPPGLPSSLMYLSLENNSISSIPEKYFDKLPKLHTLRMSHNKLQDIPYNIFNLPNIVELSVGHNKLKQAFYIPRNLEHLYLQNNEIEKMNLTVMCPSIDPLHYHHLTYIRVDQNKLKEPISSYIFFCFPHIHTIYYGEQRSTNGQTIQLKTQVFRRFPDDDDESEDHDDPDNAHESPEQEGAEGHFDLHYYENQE
Described as above.

Experiment [4] addresses T1, Proline/arginine-rich end leucine-rich repeat protein. Description: ELISA; competition: immobilised ECM proteins (10 µg/ml) incubated with 50 µg/ml FH in the presence or absence of 20 µg/ml FHR5; bound FH detected with mAb A254; both purified.
Experiment [5] deals with T2, Fibromodulin. The experiment is described as above.
Experiment [6] deals with T3, Osteoadherin. The description is as above.
For experiment [7], the target named is Recombinant human factor H-related protein 1 (human) (UniProt Q03591). Description: ELISA; FHR proteins, FHR5 fragments and C3b immobilised at 5 µg/ml in DPBS with Mg2+ and Ca2+; 20 µg/ml of the properdin forms added at 20°C for 1 hr; detected with anti-properdin mAb A235; both purified.
For experiment [8], the target named is T4, Recombinant human factor H-related protein 5 (human) (UniProt Q9BXR6).
T4 sequence: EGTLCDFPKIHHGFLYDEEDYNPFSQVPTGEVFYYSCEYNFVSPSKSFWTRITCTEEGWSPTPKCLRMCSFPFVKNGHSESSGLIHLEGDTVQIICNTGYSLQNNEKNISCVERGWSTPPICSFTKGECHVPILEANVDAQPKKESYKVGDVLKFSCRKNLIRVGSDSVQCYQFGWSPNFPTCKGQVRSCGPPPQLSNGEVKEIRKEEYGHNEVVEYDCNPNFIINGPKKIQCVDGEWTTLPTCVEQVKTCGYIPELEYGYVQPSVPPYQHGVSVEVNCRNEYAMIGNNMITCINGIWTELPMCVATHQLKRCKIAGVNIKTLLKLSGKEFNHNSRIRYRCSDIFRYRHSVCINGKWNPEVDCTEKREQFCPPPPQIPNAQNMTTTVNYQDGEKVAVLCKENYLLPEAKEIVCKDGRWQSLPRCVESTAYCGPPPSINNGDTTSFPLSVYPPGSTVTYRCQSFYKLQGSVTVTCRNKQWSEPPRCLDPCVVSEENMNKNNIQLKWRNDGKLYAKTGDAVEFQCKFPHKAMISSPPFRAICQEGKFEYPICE
The experiment is described as above.

In experiment [9] the target is Recombinant human FHR2 (human) (UniProt P36980). Described as above.
In experiment [10] the target is Recombinant human FHR3 (human) (UniProt Q02985). The experiment is described as above.
In experiment [11] the target is T4, Recombinant human factor H-related protein 5 (human). Description: ELISA; FHR5, CCPs 1-4, CCPs 3-7, CCPs 8-9 and HSA immobilised at 5 µg/ml, blocked with 4% BSA; 20 µg/ml C3b, iC3b, C3c or 10 µg/ml C3d added; detected with anti-human C3 or anti-human C3d; both purified.
Experiment [12] has as its target T1, Proline/arginine-rich end leucine-rich repeat protein. Description: peptide or protein array; ECM proteins (0.5 mg/ml) printed on nitrocellulose-covered slides in triplicates, blocked with 4% BSA; incubated with FHR1 (5, 25, 50 µg/ml) or FHR5 (0.5, 5, 20 µg/ml); detected with goat anti-human FH or anti-FHR5 and Alexa-647 anti-goat IgG; signal above gelatin taken as binding; both purified.

For experiment [13], the target named is T3, Osteoadherin. Described as above.
The target of experiment [14] is T1, Proline/arginine-rich end leucine-rich repeat protein. Description: ELISA; laminin, fibromodulin, osteoadherin, PRELP and HSA coated (5 µg/ml; legend: 10 µg/ml), incubated with FHR1 (5 or 10 µg/ml); detected with goat anti-human FH; both purified.
Experiment [15] deals with T2, Fibromodulin. The description is as above.
Experiment [16] has as its target T3, Osteoadherin. Described as above.

These are yes or no findings as the source states them, for the method shown. Some results given as binding are weak or reduced against the parent protein; the word gives no strength.

For the substance “Purified human factor H (from UniProt P08603 19-1231)”, the binding result in experiment [1], in experiment [2], in experiment [3], in experiment [4], in experiment [5] and in experiment [6] was “binds” each time.

With “Purified properdin tetramers (from UniProt P27918 28-469)”, the binding entry in experiment [7], in [8], in experiment [9] and in experiment [10] was “no binding (tested: 20 µg/ml)” throughout.

As for “Purified commercial properdin (from UniProt P27918 28-469)”, the binding entry in experiment [8] is “no binding (tested: 20 µg/ml)”.

Turning to “Purified properdin dimers (from UniProt P27918 28-469)”, the binding result in [7], in [8], in experiment [9] and in [10] was “no binding (tested: 20 µg/ml)” in each case.

Turning to “Purified human C3c (from UniProt P01024 23-667; P01024 749-954; P01024 1321-1663)”, the binding result in experiment [11] is on record as “no binding (tested: 20 µg/ml)”.

“Recombinant human factor H-related protein 1 (from UniProt Q03591 19-330)”: the binding result in [12], in [13], in [14], in experiment [15] and in experiment [16] was “binds” throughout.

In the case of “Purified properdin trimers (from UniProt P27918 28-469)”, the binding entry in experiment [7], in [8], in experiment [9] and in experiment [10] was “no binding (tested: 20 µg/ml)” throughout.
